Consider three molecules from US20210230279A1.

Amino acid sequences for entries named in this document (tags omitted). A change or cut given only in a name is not applied to a line headed by its entry.
UniProt P26012: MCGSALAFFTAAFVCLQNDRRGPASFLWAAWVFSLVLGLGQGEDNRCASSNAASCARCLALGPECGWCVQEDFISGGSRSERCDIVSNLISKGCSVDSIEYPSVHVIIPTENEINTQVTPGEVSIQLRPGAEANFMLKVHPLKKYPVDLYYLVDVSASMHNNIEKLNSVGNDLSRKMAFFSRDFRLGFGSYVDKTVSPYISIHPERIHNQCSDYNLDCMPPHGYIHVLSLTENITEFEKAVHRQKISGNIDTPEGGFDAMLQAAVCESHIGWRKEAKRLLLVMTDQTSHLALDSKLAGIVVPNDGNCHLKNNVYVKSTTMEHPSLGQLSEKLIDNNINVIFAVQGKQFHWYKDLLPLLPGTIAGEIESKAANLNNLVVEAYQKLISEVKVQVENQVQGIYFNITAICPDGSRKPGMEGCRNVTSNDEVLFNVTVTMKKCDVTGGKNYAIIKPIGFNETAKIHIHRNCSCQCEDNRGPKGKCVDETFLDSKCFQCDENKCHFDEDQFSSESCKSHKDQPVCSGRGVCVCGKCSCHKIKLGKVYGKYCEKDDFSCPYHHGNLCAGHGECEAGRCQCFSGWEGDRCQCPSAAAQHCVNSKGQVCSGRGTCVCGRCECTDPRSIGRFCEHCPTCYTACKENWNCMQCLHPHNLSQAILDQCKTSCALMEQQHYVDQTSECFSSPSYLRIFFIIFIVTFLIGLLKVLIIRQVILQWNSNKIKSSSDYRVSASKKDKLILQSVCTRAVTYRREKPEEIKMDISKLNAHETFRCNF

No constants are given. Whether binding was seen depends on the method and setting. Some results given as binding are weak or reduced against the parent protein; the word gives no strength.

The target in assay [1] is human integrin β8 subunit (human) (UniProt P26012). Briefly: staining of formalin-fixed paraffin-embedded tissue, rabbit IgG format.
Assay [2] shares this target. Briefly: staining of formalin-fixed paraffin-embedded tissues.
For assay [3] the target is unchanged. Briefly: immunostaining of human stomach biopsies (FIG. 21 and 22).

B1: clone C4 as rabbit IgG (antibody, V domains shown)
VH: QVQLQQSGAELVRPGTSVKVSCKASGYAFTDYLIEWVRQRPGQGLEWIGVINPETGGTNYNAKFRGRATLTADKSSSSAYMQLSSLTSGDSAVYFCAREAGNYIYAMDYWGQGTSVTVSS
VL: DIVMTQSPASLSASVGETVTITCRASVNIYSYLVWYQQKQGKSPQLLVHNAKTLAEGVPSRFSGSGSGTQFSLKINSLQPEDFGSYYCQHHHGTPYTFGGGTKLEIKR
For B1, the binding entry in assay [1] is on record as “binds”.

B2: clone F9 in IgG format (antibody, V domains shown)
VH: QVQLQQSGAELVRPGTSVKVSCKASGYAFTDYLIQWVKQRPGQGLEWIGVINPETGGTNYNAKFRGKATLTADKSSSSAYMQLSSLTSGDSAVYFCAREAGNYIYAMDYWGQGTSVTVSS
VL: DIVMTQSPAFLSASVGETVTITCRASVNIYSYLVWYQQKQGKSPQLLVHNAKTLAEGVPSRFSGSGSGTQFSLKINSLQPEDFGSYYCQHHHGTPYTFGGGTKLEIKR
With B2, the binding result in assay [2] and in assay [3] was “binds” throughout.

B3: clone D10 as rabbit IgG (antibody, V domains shown)
VH: QVQLQQSGAELVRPGTSVKVSCKASGYAFTDYLIEWVRQRPGQGLEWIGVINPETGGTNYNAKFRGKVTLTADKTSSSAYMQLSSLTSGDSAVYFCAREAGNYIYAMDYWGQGTSVTVSS
VL: DIEMTQTPASLSASVGETVTITCRASVNIYSYLVWYQQKQGKSPQLLVHNAKTLAEGVPSRFSGSGSGTQFSLKINSLQPEDFGSYYCQHHHGTPYTFGGGTKLEIKR
As to B3, the binding result in assay [1] is reported as “binds”.
